# Results from one PubChem assay

The results are deposited in PubChem (AID912; NCATS, 2007).

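Uptake of anthrax lethal toxin into cultured cells, read by FRET (460/530 nm ratio) and reported from the 460 nm channel; the cell line is not named here. Each compound was tested as a concentration series from about 0.0005 to 40 µM. The number is the fitted AC50 of the 460 nm signal alone; lower values mean a more potent effect. A falling signal goes with compounds filed as inhibitors or cytotoxic, a rising one with activators or fluorescent compounds (inferred from the filed classes).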

Values are in nM. Common to all entries: measured here: 460 nm channel. This is a side read-out of the assay, for part of the compounds, not drawn at random. A potency from a partial, single-point or poor curve is only a rough figure. The first word of each remark tells which way the curve ran; it can be opposite to the aim of the assay.

compound,AC50 (nM),curve as filed
C=CCn1c(COc2cccc3ccc(C)nc23)nnc1SCC(=O)OC,5012,"falling, partial curve, poor fit"
CN(C)c1ccc(N=Nc2ccccc2)cc1,6310,"falling, full curve, poor fit"
COC(=O)[C@@]1(Cc2ccc(OC)cc2)[C@H]2c3cc(C(=O)N4CCCC4)n(Cc4c(CO)[nH]cc(C)c4=O)c3C[C@H]2CN1C(=O)c1ccccc1,15848,"rising, partial curve"
COc1ccc(O)c(-c2[nH]ncc2C(=O)c2ccccc2C)c1,1000,"falling, full curve, poor fit"
Cc1ccc(-c2cc(C(F)F)n3ncc(C(=O)N4CCN5CCCC5C4)c3n2)cc1 (stereo not given),251.2,"rising, partial curve, poor fit"
CCCn1c(SCC(=O)Nc2ccccc2N2CCCCC2)nc2c1c(=O)n(C)c(=O)n2C,10,"falling, full curve, poor fit"
O=C(CCSc1nnc2scc(-c3ccccc3)n12)NCc1ccc2c(c1)OCO2,3.981,"falling, full curve"
Cc1cc(C(=O)COC(=O)C2COc3ccccc3O2)c(C)n1CC1CCCO1 (stereo not given),5012,"rising, partial curve, poor fit"
Cc1cc(/C=N/n2cnnc2)c(C)n1-c1ccc(Cl)cc1Cl,10000,"rising, partial curve"
COc1ccc(C2SCCN2S(=O)(=O)c2ccc(F)cc2)cc1OC (stereo not given),5012,"rising, single point"
COc1ccc(NC(=O)CC2Sc3ncnn3C2=O)cc1 (stereo not given),12589,"falling, partial curve, poor fit"
O=C(Nc1cccnc1)c1ccccc1Oc1ccccc1,25118,"rising, single point"
Nc1ccc(O)cc1C(=O)OCC(=O)C12CC3CC(CC(C3)C1)C2,25118,"rising, single point"
CN1CCN(CCCN2c3ccccc3Sc3ccc(C(F)(F)F)cc32)CC1,10000,"falling, partial curve, poor fit"
COCCNc1nc(-c2ccc(N(C)C)cc2)nc2ccccc12,31622,"falling, single point"
O=C(CSc1nnc(COc2ccc(F)cc2)o1)N1c2ccccc2CCc2ccccc21,19952,"falling, partial curve"
COc1ccc(C(=O)c2no[n+]([O-])c2C(=O)c2ccc(OC)cc2)cc1,12589,"falling, partial curve"
CCOC(=O)c1nnn(CC(=O)Nc2cccc(Cl)c2C)c1C(=O)OCC,10000,"falling, single point"
CCCNC(=O)OC[C@@H]1O[C@H](CCO/N=C\[C@@H](C)[C@H](OCc2ccccc2)C(C)C)C=C[C@@H]1Oc1ccc(OC)cc1,5012,"rising, single point"
C=C1CC[C@@H](O)C/C1=C/C=C1\CCC[C@]2(C)[C@@H]1CC[C@H]2[C@@H](C)CCCC(C)C,31622,"falling, single point"
CCOC(=O)N1CCC(Nc2c(NCCCOC)c(=O)c2=O)CC1,3981,"falling, partial curve"
N#C[C@H](Cc1ccc(O)cc1)c1ccc(O)cc1,12589,"falling, single point"
CN(C)CCNC(=O)c1cc2c(=O)n(C)c3ccccc3c2n1C,12589,"falling, partial curve"
CC(=O)O[C@@H]1CN2CCC1CC2,12589,"falling, single point"
COc1cccc(-c2nc(CS(=O)(=O)CC(=O)Nc3cccc(C)c3C)c(C)o2)c1,12589,"falling, single point"
CCOc1ccccc1NC(=O)CCC(=O)Nc1ccc2nc(N3CCN(C)CC3)cc(C)c2c1,19952,"falling, single point"
O=C(NCc1ccc2c(c1)OCO2)c1ccc2c(c1)C(=O)N(CC1CCCO1)C2=O (stereo not given),31622,"falling, partial curve"